Results published in patent US20240327353A1.
Some of these results come from one statement about several compounds together.

By UniProt entry, the sequences of proteins in these tests, tags left out. Residues count along the entry.
UniProt P28335, 33-458: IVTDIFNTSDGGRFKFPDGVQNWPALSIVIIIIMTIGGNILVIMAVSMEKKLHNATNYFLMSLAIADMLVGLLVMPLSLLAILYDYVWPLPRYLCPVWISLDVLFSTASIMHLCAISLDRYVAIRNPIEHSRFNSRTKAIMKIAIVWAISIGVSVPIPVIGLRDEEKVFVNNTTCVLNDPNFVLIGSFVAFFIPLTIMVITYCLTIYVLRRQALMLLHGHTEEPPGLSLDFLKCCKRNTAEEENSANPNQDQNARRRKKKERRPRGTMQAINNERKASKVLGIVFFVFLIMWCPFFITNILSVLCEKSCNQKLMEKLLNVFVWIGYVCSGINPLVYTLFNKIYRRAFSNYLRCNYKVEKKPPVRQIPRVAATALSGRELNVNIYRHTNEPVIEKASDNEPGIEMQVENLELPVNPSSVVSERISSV
UniProt P41595, whole entry: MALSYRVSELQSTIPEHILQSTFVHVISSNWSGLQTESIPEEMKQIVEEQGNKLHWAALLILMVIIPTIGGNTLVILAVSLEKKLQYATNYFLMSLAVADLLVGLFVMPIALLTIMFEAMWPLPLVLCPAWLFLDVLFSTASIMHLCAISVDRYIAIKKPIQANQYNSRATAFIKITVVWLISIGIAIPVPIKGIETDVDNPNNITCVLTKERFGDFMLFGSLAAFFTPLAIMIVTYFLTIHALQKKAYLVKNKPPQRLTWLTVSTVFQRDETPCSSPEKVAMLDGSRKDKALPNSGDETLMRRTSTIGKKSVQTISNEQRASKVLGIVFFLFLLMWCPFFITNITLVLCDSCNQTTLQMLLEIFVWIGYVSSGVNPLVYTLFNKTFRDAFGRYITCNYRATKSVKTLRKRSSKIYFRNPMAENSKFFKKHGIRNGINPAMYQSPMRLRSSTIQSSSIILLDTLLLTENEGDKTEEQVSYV

Tests used:
human wild-type 5-HT2C = human wild-type 5-HT2C (Homo sapiens, UniProt P28335); test: IP-One HTRF IP1 accumulation assay; conditions: 10 μM ligand; change from basal IP1 normalized to 5-HT (FIG. 2A)
human wild-type 5-HT2B = human wild-type 5-HT2B (Homo sapiens, UniProt P41595); test: IP-One HTRF IP1 accumulation assay; conditions: 10 μM ligand; change from basal IP1 normalized to 5-HT (FIG. 2A)

CN(C)[C@H]1Cc2ccccc2[C@H](c2cccc(-c3cccs3)c2)C1 [(2R,4S)-2c, (2R,4S)-trans-4-(3-(thiophen-2-yl)phenyl)-N,N-dimethyl-1,2,3,4-tetrahydronaphthalen-2-amine]
apparent partial agonist efficacy at 5-HT2CRs, exploratory screening (human wild-type 5-HT2C): 19-31 % 5-HT

CN(C)[C@@H]1Cc2ccccc2[C@@H](c2cccc(-c3cccs3)c2)C1 (single isomer, unassigned) [(2S,4R)-2c, Trans-4-(3-(thiophen-2-yl)phenyl)-N,N-dimethyl-1,2,3,4-tetrahydronaphthalen-2-amine]
partial agonist efficacy at 5-HT2BRs, exploratory screening (human wild-type 5-HT2B): 12-14 % 5-HT
